Values of other authors in patent US11850223B2, “Methods of treatment of cholestatic diseases” (Genfit, priority 2016, dated 2023).
For at least one compound, name, drawing or mass did not settle the structure.

Tested on: PBC patients

Structure (SMILES): C[C@H](CCC(=O)O)[C@H]1CC[C@H]2[C@@H]3[C@@H](O)C[C@@H]4C[C@H](O)CC[C@]4(C)[C@H]3CC[C@]12C [UDCA, Ursodeoxycholic acid]
- patients in whom first line therapy is efficient: 60%
